Results: paper PMC6859552
These are yes or no findings as the source states them, for the method shown. Binding seen in cells or lysates may run through a third protein. Some results given as binding are weak or reduced against the parent protein; the word gives no strength.

Sequences of proteins named here, by UniProt entry; tags and fusion partners are left off.
UniProt P13010: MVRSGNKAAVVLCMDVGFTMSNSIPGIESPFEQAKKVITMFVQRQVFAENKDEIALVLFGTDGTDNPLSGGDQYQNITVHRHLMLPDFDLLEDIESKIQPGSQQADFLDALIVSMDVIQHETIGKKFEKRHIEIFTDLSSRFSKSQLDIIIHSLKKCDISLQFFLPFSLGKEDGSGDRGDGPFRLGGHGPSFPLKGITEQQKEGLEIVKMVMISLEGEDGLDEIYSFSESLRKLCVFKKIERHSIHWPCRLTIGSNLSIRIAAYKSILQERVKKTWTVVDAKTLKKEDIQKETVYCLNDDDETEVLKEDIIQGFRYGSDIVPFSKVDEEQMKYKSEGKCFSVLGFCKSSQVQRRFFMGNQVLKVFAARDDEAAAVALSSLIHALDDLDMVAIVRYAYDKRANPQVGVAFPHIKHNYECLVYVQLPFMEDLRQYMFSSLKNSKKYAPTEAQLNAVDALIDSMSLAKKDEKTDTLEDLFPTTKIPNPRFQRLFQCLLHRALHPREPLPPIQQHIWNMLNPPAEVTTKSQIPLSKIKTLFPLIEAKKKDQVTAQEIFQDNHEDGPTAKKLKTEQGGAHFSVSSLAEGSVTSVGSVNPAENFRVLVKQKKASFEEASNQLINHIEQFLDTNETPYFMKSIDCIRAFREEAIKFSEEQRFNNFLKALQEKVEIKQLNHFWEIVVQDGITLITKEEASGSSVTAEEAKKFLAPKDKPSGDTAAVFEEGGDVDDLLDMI
UniProt Q16665: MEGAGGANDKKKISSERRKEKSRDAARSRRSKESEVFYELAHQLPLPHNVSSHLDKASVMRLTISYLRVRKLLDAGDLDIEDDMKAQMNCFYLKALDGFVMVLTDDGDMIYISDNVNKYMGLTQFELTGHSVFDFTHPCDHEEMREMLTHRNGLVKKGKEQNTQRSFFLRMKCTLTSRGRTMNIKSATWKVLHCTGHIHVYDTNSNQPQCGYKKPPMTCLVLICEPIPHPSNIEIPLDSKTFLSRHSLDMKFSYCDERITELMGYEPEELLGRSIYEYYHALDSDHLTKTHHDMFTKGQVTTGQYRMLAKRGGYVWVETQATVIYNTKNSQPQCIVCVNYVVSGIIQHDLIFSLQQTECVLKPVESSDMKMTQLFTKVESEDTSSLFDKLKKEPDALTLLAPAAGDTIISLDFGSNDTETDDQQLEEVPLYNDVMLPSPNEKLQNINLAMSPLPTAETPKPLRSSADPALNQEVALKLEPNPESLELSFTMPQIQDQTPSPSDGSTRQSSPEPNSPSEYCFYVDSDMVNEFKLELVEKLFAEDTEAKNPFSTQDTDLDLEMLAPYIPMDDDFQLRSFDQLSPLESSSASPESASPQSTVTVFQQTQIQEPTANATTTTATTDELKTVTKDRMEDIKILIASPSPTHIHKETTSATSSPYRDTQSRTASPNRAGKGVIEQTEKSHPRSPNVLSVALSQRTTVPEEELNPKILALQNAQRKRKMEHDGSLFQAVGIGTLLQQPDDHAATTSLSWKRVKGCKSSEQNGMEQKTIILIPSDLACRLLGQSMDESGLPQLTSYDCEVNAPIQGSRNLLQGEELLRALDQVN

Biological target: Flag-tagged Ku80 (UniProt P13010)
Test: co-IP; protein extracts from A375 and MEWO cells stably overexpressing Flag-tagged Ku80, immunoprecipitated with Flag antibody, protein-A/G agarose beads, 4 °C overnight, washed with cold PBS, Western blot

- binding: binds
Substance: HIF1-α (from UniProt Q16665 1-826)
